Results: PMC9644546
These are yes or no findings as the source states them, for the method shown. In cells and extracts the contact can be indirect. Some results given as binding are weak or reduced against the parent protein; the word gives no strength.

The chains behind the UniProt entries cited, without tags or fusion partners. Residues count along the entry.
UniProt Q15465, residues 24-462: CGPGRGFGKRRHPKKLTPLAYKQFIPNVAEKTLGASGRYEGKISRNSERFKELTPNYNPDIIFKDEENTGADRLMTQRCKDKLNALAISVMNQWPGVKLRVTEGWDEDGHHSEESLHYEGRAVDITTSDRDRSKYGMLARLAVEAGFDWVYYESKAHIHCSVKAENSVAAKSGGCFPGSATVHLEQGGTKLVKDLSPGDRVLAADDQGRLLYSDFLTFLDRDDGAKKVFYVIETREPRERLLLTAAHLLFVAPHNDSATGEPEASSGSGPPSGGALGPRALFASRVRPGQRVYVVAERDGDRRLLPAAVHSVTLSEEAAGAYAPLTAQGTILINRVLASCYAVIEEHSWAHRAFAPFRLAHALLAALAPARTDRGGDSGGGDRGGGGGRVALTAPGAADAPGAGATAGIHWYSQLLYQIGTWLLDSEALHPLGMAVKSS
UniProt Q8IWY4, residues 24-988: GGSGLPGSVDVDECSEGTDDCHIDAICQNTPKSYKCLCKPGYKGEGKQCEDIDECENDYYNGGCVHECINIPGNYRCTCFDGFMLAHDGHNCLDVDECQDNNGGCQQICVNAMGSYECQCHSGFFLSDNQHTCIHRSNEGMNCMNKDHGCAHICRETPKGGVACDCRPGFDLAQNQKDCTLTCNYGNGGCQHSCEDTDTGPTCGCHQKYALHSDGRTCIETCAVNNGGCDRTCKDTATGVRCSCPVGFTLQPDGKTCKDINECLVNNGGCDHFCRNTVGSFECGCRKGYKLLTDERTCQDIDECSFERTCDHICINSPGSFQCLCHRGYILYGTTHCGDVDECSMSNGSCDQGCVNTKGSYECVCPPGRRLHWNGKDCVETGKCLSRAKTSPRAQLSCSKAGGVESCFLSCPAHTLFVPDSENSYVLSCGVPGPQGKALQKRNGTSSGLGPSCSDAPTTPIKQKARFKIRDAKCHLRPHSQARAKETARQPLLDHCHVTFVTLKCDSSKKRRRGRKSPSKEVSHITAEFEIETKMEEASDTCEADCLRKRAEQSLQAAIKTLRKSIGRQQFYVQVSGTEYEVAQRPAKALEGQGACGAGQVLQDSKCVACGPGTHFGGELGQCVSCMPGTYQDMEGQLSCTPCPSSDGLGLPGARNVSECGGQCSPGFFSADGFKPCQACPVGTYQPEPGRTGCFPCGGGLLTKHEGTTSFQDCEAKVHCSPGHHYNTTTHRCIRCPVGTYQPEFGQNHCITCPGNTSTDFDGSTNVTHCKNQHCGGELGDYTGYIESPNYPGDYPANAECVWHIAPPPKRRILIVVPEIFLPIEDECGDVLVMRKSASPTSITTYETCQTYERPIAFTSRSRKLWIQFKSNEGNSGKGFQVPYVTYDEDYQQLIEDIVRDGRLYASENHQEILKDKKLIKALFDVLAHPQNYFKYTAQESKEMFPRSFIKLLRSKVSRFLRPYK

Target: Sonic Hedgehog (Shh) protein (human (endogenous in PLC/PRF/5 and Huh7)) (UniProt Q15465)
Assay: co-IP; magnetic beads with anti-Shh (Santa Cruz, sc-373779) or IgG control, incubated with lysates of PLC and Huh7 cells overnight at 4°C; washed with PBST; SDS-PAGE/immunoblot

SCUBE1 (from UniProt Q8IWY4 24-988)
binding: binds
